Measured values: article PMC10005750 (Molecules, 2023)

Columns and labels:
[1] = Stock solution stability (peak area vs fresh stock solutions); details: stock solution in methanol
Procedure: (§1) Standard stock solutions of DPZ, TAD, and LPZ (IS) were prepared in methanol at a concentration of 100 µg/mL and stored at −20 °C. Working solutions were prepared by diluting the stock solutions with 50% methanol. The concentration of DPZ and TAD ranged from 1 to 200 ng/mL. […] The IS working solution was prepared by diluting the stock solution with 50% methanol to a concentration of 20 ng/mL. All working stock solutions were prepared and stored at −20 °C until use. Calibration standards and QC samples of DPZ and TAD in rat plasma were diluted with the corresponding working solutions and blank rat plasma. Drug-free plasma, that is, control (blank) plasma, stored in a deep freezer, was completely thawed at room temperature before use. Ten percent spiking with working DPZ and TAD stock solutions was performed in blank plasma. The spiked QC samples were stored at −70 °C for stability studies.
(§2) Stability analyses of the stock solutions were performed at room temperature for 3 h and under refrigerated conditions (4 °C) for 14 days. The stability of the plasma analytes was tested for low and high QC under pre-specified conditions: room temperature for 5 h, refrigeration (4 °C) for 14 days, autosampler (10 °C) for 20 h, four cycles of freezing-thawing, and finally frozen conditions (−70 °C) for 28 days for long-term stability.

[2] = Pharmacokinetic interaction study after oral administration of DPZ and TAD, alone or in combination, in rats; details: rat
Procedure: The rat plasma was stored at −70 °C. The plasma samples were thawed at room temperature and then centrifuged at 1800× g (4 °C) for 8 min before pipetting. Using a micropipette, 30 µL of the plasma sample was transferred into a polypropylene microtube, and 10 µL of IS working solution was added to each sample. Further, 0.2 mL of acetonitrile was then added and vortexed for 1 min. […] The supernatant was transferred to an analytical vessel, and 2 µL of the sample was injected into the LC-MS/MS system.
Rats were divided into three groups (n = 3): group 1, DPZ (3 mg/kg); group 2, TAD (0.3 mg/kg); and group 3, DPZ (3 mg/kg) combined with TAD (0.3 mg/kg). Animals were fasted overnight and allowed free access to water.
The peak plasma concentration, Cmax, and Tmax (the time to reach Cmax) for DPZ and TAD were calculated using individual plasma concentration–time profiles. […] The terminal half-life (T1/2) was calculated as ln 2/λz (λz is the elimination rate constant estimated by using the least-squares linear regression method of the terminal log-linear portion of the plasma concentration–time curve). The apparent clearance (CL/F) was calculated as CL/F = dose/AUC0-∞. The Mann–Whitney U test was used to determine the differences in the mean plasma concentration and PK profiles of DPZ and TAD between the single and combined administration groups. Statistical analysis was performed using SPSS Statistics (version 26.0; IBM SPSS Statistics for Windows, Armonk, NY, USA), and a p-value < 0.05 was considered statistically significant.

[3] = Plasma sample stability at low and high QC under storage and handling conditions; details: deviations from nominal concentration within ±15%
Procedure: as §1, §2

[4] = male, Sprague-Dawley, in vivo, po, 3 mg/kg

COc1cc2c(cc1OC)C(=O)C(CC1CCN(Cc3ccccc3)CC1)C2 (stereo not drawn) [Donepezil, donepezil]
Stock solution stability (Mean ± SD, %) ([1]; refrigeration (4 °C, 14 days)): 103.53 ± 1.71%
Stock solution stability (Mean ± SD, %) ([1]; refrigeration (4 °C, 14 days), listed as DPZ): 103.53%
Stock solution stability (Mean ± SD, %) ([1]; room temperature (3 h)): 103.43 ± 0.58%
Stock solution stability (Mean ± SD, %) ([1]; room temperature (3 h), listed as DPZ): 103.43%
AUC(0-inf) [2, 4]: 134 ± 37.9 ng·h/mL
Cmax [2, 4]: 59.8 ± 15.5 ng/mL
MRT last [2, 4]: 2.62 ± 0.923 h
differences in mean plasma concentration and PK parameters between single and combination groups ([2]; oral, DPZ 3 mg/kg and TAD 0.3 mg/kg, Mann–Whitney U test, p > 0.05): statistically insignificant
stability in rat plasma under all examined conditions [3]: stable
